{"sequences": {"note": "Chains of the proteins cited; added tags and fusions are not shown.", "UniProt Q7YWB7, entry or part of it": "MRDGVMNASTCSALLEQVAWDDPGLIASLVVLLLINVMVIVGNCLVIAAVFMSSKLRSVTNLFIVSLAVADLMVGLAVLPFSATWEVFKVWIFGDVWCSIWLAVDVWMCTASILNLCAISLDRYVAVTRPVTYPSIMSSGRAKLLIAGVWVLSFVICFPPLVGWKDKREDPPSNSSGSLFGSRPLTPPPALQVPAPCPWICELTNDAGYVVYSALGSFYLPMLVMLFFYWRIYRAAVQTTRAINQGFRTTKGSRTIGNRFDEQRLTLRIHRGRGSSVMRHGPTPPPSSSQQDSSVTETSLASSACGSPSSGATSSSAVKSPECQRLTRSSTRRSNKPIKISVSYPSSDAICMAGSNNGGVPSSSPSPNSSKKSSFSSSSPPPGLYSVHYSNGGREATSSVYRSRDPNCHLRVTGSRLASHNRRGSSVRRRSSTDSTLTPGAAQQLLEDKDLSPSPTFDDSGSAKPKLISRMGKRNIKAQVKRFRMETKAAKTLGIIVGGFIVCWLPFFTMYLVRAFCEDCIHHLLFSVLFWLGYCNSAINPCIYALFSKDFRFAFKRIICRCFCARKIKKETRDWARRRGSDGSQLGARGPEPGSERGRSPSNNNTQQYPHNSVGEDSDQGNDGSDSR"}, "source": "patent US7622269B2", "about": "“Methods of screening tyramine- and octopamine-expressing cells for compounds and compositions having potential insect control activity” (Tyratech, Inc., priority 2004, dated 2009)", "target": "Pa oa1 (Periplaneta americana, UniProt Q7YWB7)", "assay": "Competitive binding against 3H-yohimbine, Pa oa1 membranes", "conditions": "about 2 nM 3H-yohimbine"}
{"smiles": "CN1CCN2c3ccccc3Cc3ccccc3C2C1", "note": "(stereo not shown) [Mianserin]", "values": [{"measurement": "Ki", "result": "48 ± 13", "unit": "nM"}]}
